Reference: patent publication US4283420A, “Pharmaceutically active cyclohexyl compounds and their preparation” (Labaz, priority 1978, dated 1981)
The name of at least one read-out is uncertain.

Test system: mice
Assay: Anoxia as a result of confinement
Assay type: in vivo
Conditions: intraperitoneal
Method: Anoxia as a result of confinement
Mice (in batches of 20) are placed in a 200 cm^3 hermetically sealed chamber (a wide-mouthed glass vessel) which is under normal pressure and has a normal content of atmospheric oxygen. All of the treatments are administered intraperitoneally immediately before introduction into the chamber. The animal is considered to be dead at the moment when breathing stops.
Since the wide-mouthed vessels chosen are very small, the motor activity of the animals is extremely low and this eliminates, in principle, the possibility of a positive result due to a sedative effect.
Therefore, the percentage increase in the survival time of the treated animals is noted, relative to the batch.

| SMILES | Anoxia as a result of confinement, % increase in the survival time (at 100 (dose unit not given)) [%] | Anoxia as a result of confinement, % increase in the survival time (dose not given) [%] |
| --- | --- | --- |
| NC(=O)C1(CCOc2ccccc2)CCCCC1 [Example 54, 1-(2-phenoxyethyl)-1-cyclohexyl-carboxamide] | 25 |  |
| COCC1(C(=O)O)CCCCC1 [Example 55] |  | 22 |
